# Results are given in words; binding and its absence hold for the method and conditions named. In cells and extracts the contact can be indirect. A yes stands for co-enrichment or nearness to the bait. Other partners may have been found.
# Amino acid sequences for entries named in this document (tags omitted).
# UniProt P11142: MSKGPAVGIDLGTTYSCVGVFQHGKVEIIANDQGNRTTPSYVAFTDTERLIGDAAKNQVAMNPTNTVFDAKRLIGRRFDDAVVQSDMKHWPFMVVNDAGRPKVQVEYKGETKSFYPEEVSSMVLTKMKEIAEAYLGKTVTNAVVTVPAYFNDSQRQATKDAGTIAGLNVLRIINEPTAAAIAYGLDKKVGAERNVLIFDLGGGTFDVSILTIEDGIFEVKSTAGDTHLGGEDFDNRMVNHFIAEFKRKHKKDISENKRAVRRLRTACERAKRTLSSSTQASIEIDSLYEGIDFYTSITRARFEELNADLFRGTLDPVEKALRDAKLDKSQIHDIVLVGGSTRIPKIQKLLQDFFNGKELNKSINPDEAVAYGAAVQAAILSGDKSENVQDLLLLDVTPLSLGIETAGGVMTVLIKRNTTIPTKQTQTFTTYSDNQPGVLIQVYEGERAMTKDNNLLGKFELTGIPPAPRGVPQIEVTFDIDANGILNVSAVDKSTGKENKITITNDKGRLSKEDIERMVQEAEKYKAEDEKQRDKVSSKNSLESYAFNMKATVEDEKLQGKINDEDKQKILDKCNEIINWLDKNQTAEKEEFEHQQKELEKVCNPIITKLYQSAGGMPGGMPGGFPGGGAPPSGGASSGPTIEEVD
# B1: Heterogeneous nuclear ribonucleoprotein M (HNRNPM), endogenous (protein, UniProt P52272 1-730)
# chain: MAAGVEAAAEVAATEIKMEEESGAPGVPSGNGAPGPKGEGERPAQNEKRKEKNIKRGGNRFEPYANPTKRYRAFITNIPFDVKWQSLKDLVKEKVGEVTYVELLMDAEGKSRGCAVVEFKMEESMKKAAEVLNKHSLSGRPLKVKEDPDGEHARRAMQKVMATTGGMGMGPGGPGMITIPPSILNNPNIPNEIIHALQAGRLGSTVFVANLDYKVGWKKLKEVFSMAGVVVRADILEDKDGKSRGIGTVTFEQSIEAVQAISMFNGQLLFDRPMHVKMDERALPKGDFFPPERPQQLPHGLGGIGMGLGPGGQPIDANHLNKGIGMGNIGPAGMGMEGIGFGINKMGGMEGPFGGGMENMGRFGSGMNMGRINEILSNALKRGEIIAKQGGGGGGGSVPGIERMGPGIDRLGGAGMERMGAGLGHGMDRVGSEIERMGLVMDRMGSVERMGSGIERMGPLGLDHMASSIERMGQTMERIGSGVERMGAGMGFGLERMAAPIDRVGQTIERMGSGVERMGPAIERMGLSMERMVPAGMGAGLERMGPVMDRMATGLERMGANNLERMGLERMGANSLERMGLERMGANSLERMGPAMGPALGAGIERMGLAMGGGGGASFDRAIEMERGNFGGSFAGSFGGAGGHAPGVARKACQIFVRNLPFDFTWKMLKDKFNECGHVLYADIKMENGKSKGCGVVKFESPEVAERACRMMNGMKLSGREIDVRIDRNA
# Molecular target: AURKB, bait of the IP-MS in 293T cells (UniProt Q96GD4)
# Assay: affinity purification with mass spectrometry; immunoprecipitation of AURKB from 293T cell lysate (Pierce IP Lysis Buffer, Protein A/G agarose beads), beads sent for mass spectrometry; antibody not stated
row,binding,Molecule
1,binds,HNRNPK (from UniProt P61978 1-463)
2,binds,HSPA8 (from UniProt P11142 1-646)
3,binds,B1

# From publication PMC12337393
